Assay results as given in the supplement of paper PMC3334620.
Whole data set: some 33,000 sequences, median “E-score (-0.5 to 0.5)” near -0.0014, cut for the highest 2% near 0.25. The list shows a part of the results.

Target: T1, Cad1 (UniProt P24813)
T1 sequence: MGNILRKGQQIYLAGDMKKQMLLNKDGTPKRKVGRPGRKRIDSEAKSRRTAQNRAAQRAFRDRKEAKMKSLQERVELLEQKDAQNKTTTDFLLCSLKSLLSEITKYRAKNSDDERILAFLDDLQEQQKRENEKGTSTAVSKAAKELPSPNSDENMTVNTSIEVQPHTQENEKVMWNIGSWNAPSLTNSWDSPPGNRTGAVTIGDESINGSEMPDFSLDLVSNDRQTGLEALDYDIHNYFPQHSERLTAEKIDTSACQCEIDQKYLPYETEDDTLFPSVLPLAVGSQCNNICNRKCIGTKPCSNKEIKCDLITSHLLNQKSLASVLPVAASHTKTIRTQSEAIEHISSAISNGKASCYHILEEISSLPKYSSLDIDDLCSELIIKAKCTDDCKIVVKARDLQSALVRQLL
Assay: PBM E-score (8-mer binding enrichment) (E-score (-0.5 to 0.5)); higher = stronger / more preferred TF binding
Details: protein concentration: 100 nM; construct: GST-full length
Method: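 Universal 'all 10-mer' protein binding microarrays (Agilent AMADID 015681) probed with GST-tagged S. cerevisiae TFs (full-length or DBD) made by in vitro transcription/translation (PURExpress), about 100-200 nM. Bound TF was detected with fluorescent anti-GST. Each ungapped 8-mer (which stands for itself and its reverse complement) is scored by the PBM enrichment score (E-score), a modified Wilcoxon-Mann-Whitney statistic from -0.5 to +0.5, computed with the Universal PBM Analysis Suite. Scale: above 0.35 generally sequence-specific binding.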

Sequence | PBM E-score
ATGTGGTG | -0.0254
GCGGCTCA | 0.00226
CAGCGGCC | -0.0649
AAACCGAT | 0.00351
CGTACTTC | 0.096
ATAGGCAG | 0.0141
ACATATCG | -0.104
CGCACCTA | -0.081
TACCCGAA | 0.0362
ACAACAGA | -0.0637
GAGGTTCA | 0.0769
CCTATCGA | 0.0133
CGGCCGCC | -0.112
AATTGTGC | 0.0474
TAATAGGA | 0.13
GCGTACGA | 0.00717
CGTCTAGA | -0.156
ACTTTATG | 0.0809
GATGCCAA | -0.159
CCACGACG | -0.0293
CGTGCTCA | 0.0902
CTCCCACC | -0.305

Sequence | PBM E-score
CGTCAGGC | -0.125
GAGGCCGA | -0.0148
AAACATAG | -0.0611
ACTTCTAG | -0.253
CGCACTCA | 0.0075
CGATAGAG | -0.0302
ATTCCAAA | -0.0355
TGACCACA | -0.0368
GGCCGGCA | 0.059
ATTGGGGG | -0.266
AGCCGTAG | -0.0375
ACAATAGA | -0.144
ACATGTTC | -0.00082
GCCAGTAA | -0.0823
CCATTGTC | 0.00119
AAGTGCGG | -0.00741
CGCGTAAG | 0.241
CGACACCA | 0.0539
ATTCGCCG | 0.183
CAGCGCCA | -0.16
CAATTATC | 0.146
GTAGCGAA | -0.15

Sequence | PBM E-score
ATTGAGGG | -0.206
AGGGTTTA | -0.0703
TCTTTAAA | 0.0864
CTTCGTTA | -0.0282
CAGGTTAG | -0.0576
ATATCTAG | 0.0434
AGACTCAC | -0.0897
CCGCTCCC | -0.287
ATAAGTAT | 0.00112
GACCGTAA | -0.061
AGACGGAC | 0.0359
AAGACGGG | -0.0459
TAGGACTA | -0.00499
AAATCTTG | 0.109
CAGCTCTC | -0.244
GCATTACC | -0.163
CAGCAGTA | 0.0379
ATCCCCCA | -0.425
ACGAGCGC | -0.0482
AATTTGGC | 0.0397
AATTACGT | 0.13
ATGTGATA | 0.135

Sequence | PBM E-score
GCCTAAGC | 0.0263
ACTGGAAG | -0.166
GAACGCCC | -0.0229
ACGGTAGC | -0.0419
CTCGCTTC | -0.0572
GGCGCAGA | 0.00055
CTACAACC | -0.131
ACATATGG | 0.114
CAAACGTG | 0.0705
AACGTCGA | 0.197
GGCCGGAA | -0.18
CACAATAG | 0.0226
TAGCATAA | 0.0268
AGGACGAC | -0.0649
CATACGCA | -0.0212
CACGGCCG | -0.0272
GATTTTGA | 0.232
AATTTATG | 0.229
ACCTCACC | -0.247
TATATAAA | 0.23
CATTCTCA | 0.121
ACTCATGA | 0.0734

Single entries from the entries so far:
Value of TATATAAA under PBM E-score: 0.23
Value of AATTTATG under PBM E-score: 0.229
Value of CAATTATC under PBM E-score: 0.146

Additional entries.

Sequence | PBM E-score
GTTGATGA | 0.0968
CCAATGGG | -0.261
AGATTACG | 0.252
TTTCCAAA | 0.00352
TATAATAA | 0.278
AGACCTTA | 0.122
CAAACACA | 0.114
AGGTCGCC | -0.101
AGAGTAGA | -0.0592
CGCGACGA | 0.228
CAAGCTAG | -0.0204
ACCGGTTC | -0.105
CATCTAGC | -0.00244
ATGAAGCG | -0.137
CACGTTCC | 0.0584
AAACTTAT | 0.256
AGGCAAGA | -0.099
TGGGTCAA | -0.0965
CTTTATTA | 0.18
CATCCGCA | 0.0911
CGACGACG | -0.122
